## Percent effect of library compounds

Chains of the proteins cited; added tags and fusions are not shown. Residues count along the entry.
UniProt Q8IDJ8, 1-583: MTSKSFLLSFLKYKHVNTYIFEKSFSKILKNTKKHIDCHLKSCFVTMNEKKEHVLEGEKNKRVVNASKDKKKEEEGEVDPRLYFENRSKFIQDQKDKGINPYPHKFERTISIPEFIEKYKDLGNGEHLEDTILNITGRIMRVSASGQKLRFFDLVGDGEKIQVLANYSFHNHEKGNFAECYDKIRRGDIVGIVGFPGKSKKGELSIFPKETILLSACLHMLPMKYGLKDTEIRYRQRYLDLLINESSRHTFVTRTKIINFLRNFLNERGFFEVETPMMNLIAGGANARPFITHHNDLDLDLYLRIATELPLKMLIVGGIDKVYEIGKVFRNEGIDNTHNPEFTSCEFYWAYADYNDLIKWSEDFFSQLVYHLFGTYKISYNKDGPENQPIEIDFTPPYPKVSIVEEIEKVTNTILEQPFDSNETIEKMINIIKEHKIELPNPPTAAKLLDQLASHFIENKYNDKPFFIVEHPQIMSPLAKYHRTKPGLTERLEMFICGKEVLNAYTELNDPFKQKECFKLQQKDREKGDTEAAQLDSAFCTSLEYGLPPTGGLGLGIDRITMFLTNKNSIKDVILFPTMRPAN
UniProt Q4DA54, 1-478: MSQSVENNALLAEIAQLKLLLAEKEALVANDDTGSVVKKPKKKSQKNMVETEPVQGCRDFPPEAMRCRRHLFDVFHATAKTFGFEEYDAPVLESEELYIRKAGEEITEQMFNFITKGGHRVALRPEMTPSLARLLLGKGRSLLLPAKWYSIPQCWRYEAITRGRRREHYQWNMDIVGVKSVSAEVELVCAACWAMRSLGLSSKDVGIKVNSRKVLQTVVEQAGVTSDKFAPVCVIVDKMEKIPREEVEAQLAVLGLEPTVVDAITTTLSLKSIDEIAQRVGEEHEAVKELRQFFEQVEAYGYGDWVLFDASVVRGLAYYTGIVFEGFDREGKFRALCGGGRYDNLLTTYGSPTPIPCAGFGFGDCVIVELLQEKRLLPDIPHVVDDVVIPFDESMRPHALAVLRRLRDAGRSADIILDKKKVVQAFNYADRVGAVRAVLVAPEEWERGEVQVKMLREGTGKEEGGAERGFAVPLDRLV

A: 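Cell assay of Leishmania donovani living inside macrophages; the read-out is not stated. Compounds at 30 µM. Higher reads as stronger inhibition (inferred: compounds with an IC50 in retests scored well above the rest). About 69,000 compounds were tested under these conditions; 1.5% (about 1,000) showed 50% or more at least once.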
B: 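Whole-parasite assay of Trypanosoma brucei over 72 hours; the read-out is not stated. Compounds at 30 µM. The record gives no direction; compounds that gave an IC50 in retests scored well above the rest, so higher reads as stronger inhibition. Values scatter widely below zero; nearly all retest evidence comes from the higher of the two concentrations used. Of about 64,000 compounds tested this way, about 940 (1.5%) reached 50% or more in at least one test.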
C: 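Assay of Toxoplasma gondii numbers, read through their beta-galactosidase reporter with a colour substrate. Compounds at 10 µM. The record gives no direction; the compounds picked for IC50 retests had high values, so higher reads as fewer parasites. About 67,000 compounds were tested under these conditions; 0.38% (about 260) showed 50% or more at least once.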
D: 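Lysine-tRNA ligase, Plasmodium falciparum 3D7 (UniProt Q8IDJ8). Enzyme assay of the cytosolic lysyl-tRNA synthetase in 384-well plates, read by luminescence. Tested at 30 µM. Higher reads as stronger inhibition, judged from the few compounds that gave an IC50. About 69,000 compounds were tested under these conditions; 0.071% (about 49) showed 50% or more at least once.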
E: 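Enzyme assay of histidyl-tRNA synthetase; the read-out is not stated. Target: Histidine-tRNA ligase, Trypanosoma cruzi CL Brener (UniProt Q4DA54). Compounds at 30 µM. Direction is inferred from retests: higher values go with stronger inhibition. About 69,000 compounds were tested under these conditions; 0.045% (about 31) showed 50% or more at least once.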

Values are the deposited “Percent Effect”, in %.
The record does not define 0% and 100%; most values in the screen are far below 50% and negative numbers occur (in some assays of this library far below -100).
The compounds are a random part of those screened.
Two or more numbers in one place are separate tests of the same structure; such repeats can differ widely.
A dash means the value is not listed here; it may have been measured.

structure	A	B	C	D	E
COCCNC(=O)NCc1cc(-c2cccs2)n(C2CCCC2)n1	17.61	-45.81	-10.33	1.53	6
CCSCC(C)NCc1cc(-c2ccco2)on1 (stereo unspecified)	10.86	26.35	-14.03	3.399	7.2
Fc1cnc(N2CCn3c(CN4CCCC4)nnc3C2)nc1.O=C(O)C(F)(F)F	24.68	-8.601	-50.1	-	-
N#Cc1ccnc(NCc2cc3n(n2)CCCN(C(=O)C2CCC2)C3)c1	23.45	-16.43	-24.27	2.054	7.035
Cc1noc(CNc2ccc(OC(F)F)cc2OC(F)F)n1	19.35	-5.843	12.05	1.905	3.665
Cc1nn(-c2ccccn2)c2c1C(c1cnn(C)c1)SCC(=O)N2 (stereo unspecified)	0.3695	-33.54	14.29	-0.7031	2.924
O=C1C(NS(=O)(=O)c2ccc(F)cc2)CCN1Cc1ccccc1 (stereo unspecified)	12.72	-	-42.6	-0.07893	6.857
CS(=O)(=O)N1C[C@H](C(=O)Nc2cccnc2)[C@@H]2CCO[C@@H]2C1	-	-	-	4.087	2.062
CCCn1nnnc1CSc1nccn1C	9.597	-16.44	-13.26	3.801	2.532
CC(C)Cc1cc(C(=O)NC(C)(CO)CO)n(C)n1	-12.32	-50.11	-14.14	6.302	4.819
O=C(NCC1CCCO1)c1cc(-c2cccnc2)c2cnccc2n1 (stereo unspecified)	31.71	21.95	11.69	-0.04906	-0.3831
O=C(O)C(F)(F)F.[H][C@@]12CCN(c3cc(OC)ncn3)[C@]1([H])CC[C@H](C(=O)NC1CCCC1)O2	16.77	-7.384	2.699	-	-
CCCC(=O)Nc1ccc(CC(=O)N(C)CCc2cn[nH]c2)cc1	12.21	8.225	-5.08	-0.7857	3.867
C1CCN(CCOC2CCNC2)CC1.Cl.Cl (stereo unspecified)	14.79	-38.42	-1.452	-	-
Cc1cnn(C2CCCN(C(=O)CCCc3ccccn3)C2)c1 (stereo unspecified)	16.58	-2.18	-9.25	0.06128	5.233
CC(C)(C)c1noc(CCCC(=O)N2CCNC(=O)C2)n1	-6.252	-52.33	1.647	5.52	9.877
CN(C)c1ccc(C(=O)N2CCC(c3cc4cnccc4[nH]3)CC2)cc1	2.463	-7.375	2.404	0.6774	4.52
CN(Cc1ccccc1)CC(O)Cn1cnc2c(Cl)cc(Cl)cc2c1=O (stereo unspecified)	24.6	5.242	11.89	0.1004	6.158
Cn1cnc2c1CCN(Cc1cccc(OCC(N)=O)c1)C2	22.69	-11.27	-8.947	2.391	1.527
O=c1ccc(-c2cccs2)nn1CN1CCN(c2ccccn2)CC1	5.805	-29.48	-13.92	1.891	-0.5848
CCC(C)N(Cc1ccncc1)Cc1ccccc1Cn1cccn1 (stereo unspecified)	-1.795	11.17	10.56	-2.334	0.5587
CCc1nnc(CNC(=O)CCCN2CCCCC2)s1	-16.52	-12.15	11.78	4.818	7.65
CCN(Cc1ccccc1)Cc1nc2c(cnn2C)c(=O)[nH]1	4.222	-	-7.565	-0.9076	3.207
COc1cc(C)ccc1OCc1nc(C(=O)N2CCC(C)CC2)co1	-10.59	-	-8.052	1.304	4.598
NCCc1cn(Cc2ccccn2)c2ccccc12	-	-	-	5.12	4.545
[H][C@@]12CN(Cc3ccsc3)C[C@]1([H])N(Cc1ccccn1)C(=O)O2	11.98	-25.38	-0.5325	-	-
CC(C)c1noc(CCCC(=O)N2CCN(Cc3ccccn3)CC2)n1	25.9	-10.28	1.308	-0.2768	5.848
CNC(=O)[C@H]1C[C@@H]2CN(C(=O)c3ccco3)C[C@@H]2N1S(C)(=O)=O	-	-	-	1.471	-4.865
CCOCCC(=O)NC(c1noc(C)n1)c1ccccc1F (stereo unspecified)	12.81	-69.82	0.9671	-0.06929	0
[H][C@@]12CCN(C(=O)c3cscn3)[C@]1([H])CN(C(=O)c1ccsc1)C2	19.46	-54.48	3.252	-	-
Cc1cc(C)n(C2CCCN(C(=O)CCOc3cccc(F)c3)C2)n1 (stereo unspecified)	-3.867	-	-23.14	0.1072	3.704
COc1cccc2c1OCC(C(=O)NCCc1nnc(N)s1)C2 (stereo unspecified)	-6.883	-47.89	3.048	0.604	9.036
O=C(O)C(F)(F)F.[H][C@]12CCC(=O)N(c3cccnc3)[C@@]1([H])CCN2C(=O)CC1CC1	4.677	-	1.883	-	-
CC(=O)N1CCCC1C(=O)NCCOc1cc(C)cc(C)c1 (stereo unspecified)	-10.39	13.26	2.647	-1.472	-0.7634
CN(C)c1cc(C(=O)N2CCCC(n3cccn3)C2)ccn1 (stereo unspecified)	10.47	-10.93	-17.52	3.821	5.344
CC(C)NC(=O)Nc1cccc2c1CCN(S(C)(=O)=O)C2	-2.218	-37.04	-1.163	3.088	6.667
CN(C(=O)CC1=CCCCC1)C1CCCN(C2Cc3ccccc3C2)C1 (stereo unspecified)	-27.33	-6.894	-7.948	3.321	2.513
O=C(CSC1=NS(=O)(=O)c2cc(F)ccc2N1)Nc1ccc(Cl)cc1	3.738	-6.247	14.57	2.09	11
[H][C@@]12C[C@@H](OC)C[C@]1([H])CN(C(=O)c1cc(F)ccc1OC)C2	42.77	8.733	-23.74	-	-
O=C(c1cccnc1)N1CCCC1c1nc(O)cc(-c2ccccn2)n1 (stereo unspecified)	8.407 & -9.857	-11.73	9.145	2.484	-1.111
O=C(O)C(F)(F)F.O=C(O)C(F)(F)F.[H][C@@]12CN(Cc3cccc(F)c3)C[C@]1([H])CN(Cc1c(C)noc1C)C2	50.84	-57.37	-3.265	-	-
[H][C@]12C[C@H](C(=O)NCC3CC3)N(C(C)=O)[C@@]1([H])CN(Cc1ccco1)C2	14.65	-23.46	2.429	-	-
Cc1cc(O)nc(C2CN(CCO)CCO2)n1 (stereo unspecified)	2.982	-18.5	3.664	-1.687	3.802
Cn1c(CN2CCCC(N3CCCCCC3)C2)cc(=O)n(C)c1=O (stereo unspecified)	23.57	-10.13	4.872	1.348	-25.44
CN(C)C(=O)NC1COC2(CCN(Cc3nccn3C)CC2)C1 (stereo unspecified)	3.872	-10.79	-1.33	2.021	3.261
CCn1cc(C(=O)N2C[C@H]3C[C@H](Oc4ccccc4)C[C@H]3C2)cn1	-	-	-	1.623	6.513
CCS(=O)(=O)N1CCc2ccc(NC(=O)NCc3ccccc3)cc21	0.1936	-5.016	14.64	-2.5	7.538
Cc1nnc(N2CCCC3(CN(Cc4ccncc4)CCO3)C2)o1.O=C(O)C(F)(F)F.O=C(O)C(F)(F)F (stereo unspecified)	2.735	-27.54	-4.564	-	-
CCN(Cc1ccoc1)C(=O)NC1CCN(CC2CC2)C1 (stereo unspecified)	-13.52	-22.09	3.138	5.049	12.99
Cn1cccc(NC(=O)N2CCC(CSc3ccccc3)C2)c1=O (stereo unspecified)	18.39	15.42	-1.444	10.89	10.34
COC(=O)N1CCCCC1C(=O)N(C)Cc1cc(-c2cccnc2)no1 (stereo unspecified)	13.08	-16.73	-25.68	1.665	3.947
CCc1n[nH]c(C2CN(C(=O)c3cscn3)CCO2)n1 (stereo unspecified)	-52.05	-	11.4	-3.36	-0.2915
CCC(CO)N(Cc1ccccn1)C(=O)c1ncccc1C (stereo unspecified)	-38.09	-49.52	7.557	3.937	5.587
CN1CC(c2ccccc2)CC2(CCN(C(=O)c3ccccc3)CC2)C1 (stereo unspecified)	14.01	-7.698	-8.471	10.32	2.041
O=C(O)C(F)(F)F.[H][C@@]12CCN(S(C)(=O)=O)[C@@]1([H])CCN2Cc1ccc(C)s1	43.32	-18.24	7.412	-	-
Cc1ncc(C(=O)NCCOc2ccccc2F)c(C)n1	48.08	-71.35	0.02614	2.61	4.938
O=C(O)C(F)(F)F.[H][C@]12CC[C@@]3(N=C(CC)N(C)C3=O)[C@@]1([H])CN(Cc1ccc(F)cc1)C2	36.05	-88.48	-56.23	-	-
Cc1ccc(CNC(c2cccc(F)c2)c2nccn2C)o1 (stereo unspecified)	-	-	-	5.306	4.938
Cn1cc(CN2CCCCC2c2ccc(-c3cccc(Cl)c3)nc2)cn1 (stereo unspecified)	0.3835	23.15	-14.33	-0.2173	8.812
O=C(O)C(F)(F)F.O=C(O)C(F)(F)F.[H][C@@]12CN(Cc3cccnc3)C[C@H](C(=O)N3CCCO3)[C@]1([H])CCO2	0.8094	-8.557	2.463	-	-
O=C(O)C(F)(F)F.[H][C@]12CCC[C@@H](CN(C)C)[C@@]1([H])CN(c1ccc(C)nn1)C2	13.27	-	-25.31	-	-

Repeated from the top, 5 entries:

| structure | A | B | C | D | E |
|---|---|---|---|---|---|
| `COCCNC(=O)NCc1cc(-c2cccs2)n(C2CCCC2)n1` | 17.61 | -45.81 | -10.33 | 1.53 | 6 |
| `CCSCC(C)NCc1cc(-c2ccco2)on1` (stereo unspecified) | 10.86 | 26.35 | -14.03 | 3.399 | 7.2 |
| `Fc1cnc(N2CCn3c(CN4CCCC4)nnc3C2)nc1.O=C(O)C(F)(F)F` | 24.68 | -8.601 | -50.1 | - | - |
| `N#Cc1ccnc(NCc2cc3n(n2)CCCN(C(=O)C2CCC2)C3)c1` | 23.45 | -16.43 | -24.27 | 2.054 | 7.035 |
| `Cc1noc(CNc2ccc(OC(F)F)cc2OC(F)F)n1` | 19.35 | -5.843 | 12.05 | 1.905 | 3.665 |

From ChEMBL document CHEMBL3988442, “University of Dundee, Small-Polar-MMV Screening Library” (2021).